This is one part of the list.

By UniProt entry, the sequences of proteins in these tests, tags left out. Where a name states a change or a piece, a line headed by the entry shows the natural chain unless it says otherwise.
UniProt Q8TAA9: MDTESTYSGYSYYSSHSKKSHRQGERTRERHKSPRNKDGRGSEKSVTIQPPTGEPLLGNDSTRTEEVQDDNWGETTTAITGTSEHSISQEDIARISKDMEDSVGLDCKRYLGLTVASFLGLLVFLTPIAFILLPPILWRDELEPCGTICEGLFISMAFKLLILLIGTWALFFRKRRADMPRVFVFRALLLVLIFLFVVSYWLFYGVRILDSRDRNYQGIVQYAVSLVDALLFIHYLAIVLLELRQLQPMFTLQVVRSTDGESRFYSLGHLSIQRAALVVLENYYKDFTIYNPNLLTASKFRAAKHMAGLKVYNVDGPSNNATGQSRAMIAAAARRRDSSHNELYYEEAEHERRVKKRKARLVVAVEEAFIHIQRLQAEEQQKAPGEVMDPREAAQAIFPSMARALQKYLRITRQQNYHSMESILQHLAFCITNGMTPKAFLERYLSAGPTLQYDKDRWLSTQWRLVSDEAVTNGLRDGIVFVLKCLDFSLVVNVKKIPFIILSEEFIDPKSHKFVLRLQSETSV
UniProt Q99536: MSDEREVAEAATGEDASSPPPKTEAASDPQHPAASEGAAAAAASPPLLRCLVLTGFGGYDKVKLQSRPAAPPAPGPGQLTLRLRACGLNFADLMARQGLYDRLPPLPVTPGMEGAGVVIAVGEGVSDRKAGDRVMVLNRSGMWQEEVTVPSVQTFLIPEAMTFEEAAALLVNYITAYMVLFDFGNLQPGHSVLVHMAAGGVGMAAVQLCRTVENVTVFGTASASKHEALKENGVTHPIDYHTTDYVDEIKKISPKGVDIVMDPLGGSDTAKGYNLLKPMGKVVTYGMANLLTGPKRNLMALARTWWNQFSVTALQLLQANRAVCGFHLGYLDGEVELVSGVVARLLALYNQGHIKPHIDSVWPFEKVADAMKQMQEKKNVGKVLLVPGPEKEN
UniProt Q9BZL1: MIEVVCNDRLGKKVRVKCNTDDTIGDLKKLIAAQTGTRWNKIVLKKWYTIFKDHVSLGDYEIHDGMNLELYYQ
UniProt P10746: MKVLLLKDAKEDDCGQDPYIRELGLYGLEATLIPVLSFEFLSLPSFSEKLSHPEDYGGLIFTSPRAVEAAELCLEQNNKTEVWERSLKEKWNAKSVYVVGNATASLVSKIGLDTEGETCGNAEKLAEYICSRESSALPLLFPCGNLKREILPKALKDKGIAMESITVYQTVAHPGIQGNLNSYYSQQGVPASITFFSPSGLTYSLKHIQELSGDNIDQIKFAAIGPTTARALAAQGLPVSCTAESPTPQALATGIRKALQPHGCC
UniProt O95071: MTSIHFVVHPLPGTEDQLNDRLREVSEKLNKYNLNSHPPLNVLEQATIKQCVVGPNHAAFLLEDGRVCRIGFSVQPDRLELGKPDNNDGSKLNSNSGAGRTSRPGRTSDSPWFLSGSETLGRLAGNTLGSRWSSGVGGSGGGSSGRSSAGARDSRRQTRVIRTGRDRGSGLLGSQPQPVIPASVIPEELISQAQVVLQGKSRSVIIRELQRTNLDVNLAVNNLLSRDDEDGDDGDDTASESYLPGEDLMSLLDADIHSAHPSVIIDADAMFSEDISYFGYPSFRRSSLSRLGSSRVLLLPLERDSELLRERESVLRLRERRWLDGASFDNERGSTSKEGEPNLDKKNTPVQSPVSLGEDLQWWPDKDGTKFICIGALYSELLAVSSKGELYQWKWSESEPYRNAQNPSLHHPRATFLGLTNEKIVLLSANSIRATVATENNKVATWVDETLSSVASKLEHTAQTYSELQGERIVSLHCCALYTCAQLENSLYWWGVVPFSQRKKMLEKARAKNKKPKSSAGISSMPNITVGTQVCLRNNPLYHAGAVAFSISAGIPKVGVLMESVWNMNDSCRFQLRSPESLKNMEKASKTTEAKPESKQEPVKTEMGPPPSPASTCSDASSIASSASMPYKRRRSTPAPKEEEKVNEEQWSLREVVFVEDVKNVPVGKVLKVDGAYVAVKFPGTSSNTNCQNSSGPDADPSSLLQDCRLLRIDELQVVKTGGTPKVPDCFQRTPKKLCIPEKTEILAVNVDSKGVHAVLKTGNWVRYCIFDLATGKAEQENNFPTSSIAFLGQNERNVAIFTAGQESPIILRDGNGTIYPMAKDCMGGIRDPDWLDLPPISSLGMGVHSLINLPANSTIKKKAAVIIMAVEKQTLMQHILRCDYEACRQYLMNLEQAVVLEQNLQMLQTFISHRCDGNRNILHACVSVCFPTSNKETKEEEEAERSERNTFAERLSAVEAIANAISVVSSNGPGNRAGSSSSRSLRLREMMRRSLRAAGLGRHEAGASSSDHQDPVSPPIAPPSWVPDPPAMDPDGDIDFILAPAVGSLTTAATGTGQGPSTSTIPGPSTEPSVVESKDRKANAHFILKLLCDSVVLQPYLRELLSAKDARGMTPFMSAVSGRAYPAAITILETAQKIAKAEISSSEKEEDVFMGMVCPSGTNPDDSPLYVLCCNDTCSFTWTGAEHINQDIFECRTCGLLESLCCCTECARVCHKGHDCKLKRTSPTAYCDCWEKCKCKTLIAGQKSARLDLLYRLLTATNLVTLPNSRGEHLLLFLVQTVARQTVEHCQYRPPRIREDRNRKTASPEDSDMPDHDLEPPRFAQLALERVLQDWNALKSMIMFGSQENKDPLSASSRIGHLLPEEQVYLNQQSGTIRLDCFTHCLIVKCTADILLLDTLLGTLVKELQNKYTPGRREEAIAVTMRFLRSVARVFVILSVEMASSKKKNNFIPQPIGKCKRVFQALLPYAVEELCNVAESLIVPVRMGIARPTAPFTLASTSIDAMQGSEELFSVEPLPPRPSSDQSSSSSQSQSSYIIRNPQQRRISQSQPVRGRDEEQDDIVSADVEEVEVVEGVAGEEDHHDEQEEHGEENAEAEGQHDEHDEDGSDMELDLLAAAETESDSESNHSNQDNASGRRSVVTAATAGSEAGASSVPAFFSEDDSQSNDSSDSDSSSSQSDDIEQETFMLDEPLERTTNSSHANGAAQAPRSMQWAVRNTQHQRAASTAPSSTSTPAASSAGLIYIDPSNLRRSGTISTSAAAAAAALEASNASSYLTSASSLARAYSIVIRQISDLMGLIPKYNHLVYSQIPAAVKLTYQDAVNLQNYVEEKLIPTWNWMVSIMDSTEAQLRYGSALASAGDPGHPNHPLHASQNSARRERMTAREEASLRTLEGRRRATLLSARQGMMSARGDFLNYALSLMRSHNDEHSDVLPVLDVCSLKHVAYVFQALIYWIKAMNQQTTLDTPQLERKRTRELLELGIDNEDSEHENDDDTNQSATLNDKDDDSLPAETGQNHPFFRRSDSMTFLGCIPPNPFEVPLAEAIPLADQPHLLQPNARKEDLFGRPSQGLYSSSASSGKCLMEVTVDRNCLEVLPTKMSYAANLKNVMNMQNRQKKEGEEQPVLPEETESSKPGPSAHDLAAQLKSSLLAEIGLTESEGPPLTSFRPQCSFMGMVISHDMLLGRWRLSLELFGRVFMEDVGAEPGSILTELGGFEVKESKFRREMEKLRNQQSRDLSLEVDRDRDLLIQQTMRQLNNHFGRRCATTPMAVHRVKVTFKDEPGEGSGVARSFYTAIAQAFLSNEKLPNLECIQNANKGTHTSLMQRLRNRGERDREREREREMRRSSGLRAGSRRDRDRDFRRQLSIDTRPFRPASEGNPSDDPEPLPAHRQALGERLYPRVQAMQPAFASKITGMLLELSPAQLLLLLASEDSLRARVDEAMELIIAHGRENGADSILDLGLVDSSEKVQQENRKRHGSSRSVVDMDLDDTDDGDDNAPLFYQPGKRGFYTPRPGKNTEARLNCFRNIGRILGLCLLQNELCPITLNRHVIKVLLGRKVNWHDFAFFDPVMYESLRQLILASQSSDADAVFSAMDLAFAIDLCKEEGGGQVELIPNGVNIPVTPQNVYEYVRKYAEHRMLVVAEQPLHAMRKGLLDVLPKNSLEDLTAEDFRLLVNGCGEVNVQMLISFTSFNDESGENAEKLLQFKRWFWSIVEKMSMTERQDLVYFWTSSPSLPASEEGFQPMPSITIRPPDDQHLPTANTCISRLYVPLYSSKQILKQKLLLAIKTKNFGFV
UniProt Q9BVJ6: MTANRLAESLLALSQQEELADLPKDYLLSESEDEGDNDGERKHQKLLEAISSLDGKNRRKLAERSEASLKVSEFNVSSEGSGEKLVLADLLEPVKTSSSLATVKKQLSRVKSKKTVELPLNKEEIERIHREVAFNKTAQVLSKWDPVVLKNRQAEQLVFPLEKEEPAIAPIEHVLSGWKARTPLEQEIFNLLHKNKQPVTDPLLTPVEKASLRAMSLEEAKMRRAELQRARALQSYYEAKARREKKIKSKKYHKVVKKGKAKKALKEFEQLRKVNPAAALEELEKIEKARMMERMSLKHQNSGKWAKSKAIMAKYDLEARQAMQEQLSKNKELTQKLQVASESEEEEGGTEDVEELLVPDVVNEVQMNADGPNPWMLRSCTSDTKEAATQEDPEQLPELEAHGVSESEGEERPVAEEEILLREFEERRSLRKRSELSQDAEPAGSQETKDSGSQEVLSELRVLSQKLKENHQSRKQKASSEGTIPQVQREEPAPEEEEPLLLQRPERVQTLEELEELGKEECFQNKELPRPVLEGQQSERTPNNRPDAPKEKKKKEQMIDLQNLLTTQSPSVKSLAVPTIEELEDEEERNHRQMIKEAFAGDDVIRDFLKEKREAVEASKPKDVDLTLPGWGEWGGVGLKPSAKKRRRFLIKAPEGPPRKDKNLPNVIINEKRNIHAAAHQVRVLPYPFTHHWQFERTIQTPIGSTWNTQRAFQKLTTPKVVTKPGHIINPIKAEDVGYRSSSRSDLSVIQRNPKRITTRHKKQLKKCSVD
UniProt O14949: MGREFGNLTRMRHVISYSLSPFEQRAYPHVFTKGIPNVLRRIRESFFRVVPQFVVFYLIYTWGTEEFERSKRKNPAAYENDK
UniProt Q9UDW1: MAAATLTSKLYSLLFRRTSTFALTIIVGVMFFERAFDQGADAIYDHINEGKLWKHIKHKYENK
UniProt Q04323: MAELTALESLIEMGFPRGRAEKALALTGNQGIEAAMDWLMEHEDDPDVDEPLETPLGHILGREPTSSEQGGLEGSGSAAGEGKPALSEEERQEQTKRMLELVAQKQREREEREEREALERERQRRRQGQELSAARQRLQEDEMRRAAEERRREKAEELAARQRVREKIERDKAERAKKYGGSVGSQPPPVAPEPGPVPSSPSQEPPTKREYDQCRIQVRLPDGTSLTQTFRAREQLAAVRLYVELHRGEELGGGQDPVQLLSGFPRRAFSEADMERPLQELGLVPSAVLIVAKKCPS
UniProt P26640: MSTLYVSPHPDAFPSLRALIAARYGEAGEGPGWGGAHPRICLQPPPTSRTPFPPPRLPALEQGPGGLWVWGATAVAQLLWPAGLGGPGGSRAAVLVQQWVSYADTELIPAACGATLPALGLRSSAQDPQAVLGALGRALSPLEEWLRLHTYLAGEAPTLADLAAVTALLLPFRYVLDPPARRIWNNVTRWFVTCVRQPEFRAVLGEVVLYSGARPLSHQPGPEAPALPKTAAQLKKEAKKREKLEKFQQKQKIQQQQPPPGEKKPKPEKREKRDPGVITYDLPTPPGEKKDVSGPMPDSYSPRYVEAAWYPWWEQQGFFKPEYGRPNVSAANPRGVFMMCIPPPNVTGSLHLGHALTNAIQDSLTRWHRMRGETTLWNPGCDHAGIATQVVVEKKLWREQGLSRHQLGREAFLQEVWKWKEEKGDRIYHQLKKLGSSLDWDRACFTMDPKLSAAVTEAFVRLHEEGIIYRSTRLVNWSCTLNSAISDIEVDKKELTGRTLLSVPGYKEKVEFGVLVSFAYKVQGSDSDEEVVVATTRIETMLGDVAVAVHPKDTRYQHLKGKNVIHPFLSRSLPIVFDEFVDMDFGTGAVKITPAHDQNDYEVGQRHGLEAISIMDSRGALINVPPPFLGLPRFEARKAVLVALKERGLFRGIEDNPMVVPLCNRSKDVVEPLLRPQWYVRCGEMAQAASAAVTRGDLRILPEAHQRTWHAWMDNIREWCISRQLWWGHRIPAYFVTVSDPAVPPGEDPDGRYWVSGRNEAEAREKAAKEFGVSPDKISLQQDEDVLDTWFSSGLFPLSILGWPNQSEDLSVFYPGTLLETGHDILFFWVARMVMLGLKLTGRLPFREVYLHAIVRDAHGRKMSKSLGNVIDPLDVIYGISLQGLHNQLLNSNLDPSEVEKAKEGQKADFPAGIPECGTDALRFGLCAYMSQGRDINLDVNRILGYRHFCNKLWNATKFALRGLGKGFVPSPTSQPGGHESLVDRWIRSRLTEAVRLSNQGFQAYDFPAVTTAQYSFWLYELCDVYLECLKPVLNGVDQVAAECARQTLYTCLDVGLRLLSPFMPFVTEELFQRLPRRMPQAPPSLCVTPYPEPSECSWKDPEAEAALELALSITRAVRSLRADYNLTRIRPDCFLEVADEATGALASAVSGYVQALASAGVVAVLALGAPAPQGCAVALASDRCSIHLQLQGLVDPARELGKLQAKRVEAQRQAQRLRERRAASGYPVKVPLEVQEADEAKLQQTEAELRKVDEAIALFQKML

Compound in the assay: C#Cc1cccc(Nc2ncnc3cc(OCCOC)c(OCCOC)cc23)c1 [erlotinib]
The experiment in a line: log2 fold change, soluble protein after heating vs DMSO (PISA); higher = thermal stabilisation; K562 cells, 10 uM, 30 min; active = over 0.2 and 3.5 SD of the protein, either way, in both replicates (recomputed). The gist of the method:
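Soluble protein was defined as the supernatant after 21,000xg for 90 min. It came from K562 cells at 2×10^6 cells/mL given 10 μM compound for 30 min, heated in aliquots for 3 min across 48°C-58°C, pooled, and extracted in PBS with 0.5% NP-40 at 4°C, and was quantified by TMTpro 16plex LC-MS/MS with equalised channel sums. Thermal stability against control samples, from duplicates, is reported as log2 fold change.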
Take VANGL1 (UniProt Q8TAA9): the log2 fold change was inactive: 0.022.

URGCP (UniProt Q8TCY9): the log2 fold change is inactive: 0.076.

As to VAT1 (UniProt Q99536), the log2 fold change is inactive: -0.003.

In the case of UBL7 (UniProt Q96S82), the log2 fold change is inactive: 0.015.

With USP10 isoform 2 (UniProt Q14694), the log2 fold change was inactive: -0.038.

Consider UBXN7 (UniProt O94888), for which the log2 fold change was inactive: 0.032.

For USP19 isoform 6 (UniProt O94966), the log2 fold change was inactive: 0.002.

Take UBL5 (UniProt Q9BZL1): the log2 fold change was inactive: -0.069.

With UQCRH (UniProt P07919), the log2 fold change is inactive: 0.034.

Regarding UROS (UniProt P10746), the log2 fold change is inactive: -0.011.

For the target UBR5 (UniProt O95071), the log2 fold change was inactive: -0.076.

UBE3D (UniProt Q7Z6J8): the log2 fold change was inactive: -0.014.

As for UFL1 (UniProt O94874), the log2 fold change is inactive: 0.06.

On to UTP14A (UniProt Q9BVJ6), for which the log2 fold change is inactive: -0.142.

For UBQLN1 (UniProt Q9UMX0), the log2 fold change is inactive: -0.008.

With UQCRQ (UniProt O14949), the log2 fold change was inactive: -0.002.

Turning to UFD1 isoform 1 (UniProt Q92890), the log2 fold change is inactive: 0.001.

Regarding UNC45A (UniProt Q9H3U1), the log2 fold change is inactive: 0.064.

UQCR10 (UniProt Q9UDW1): the log2 fold change was inactive: -0.026.

Regarding UBXN1 (UniProt Q04323), the log2 fold change was inactive: 0.023.

In the case of VARS (UniProt P26640), the log2 fold change was inactive: -0.04.

Consider UQCRB (UniProt P14927), for which the log2 fold change was inactive: 0.002.

Consider USP47 (UniProt Q96K76), for which the log2 fold change was inactive: 0.002.

The record behind these values is the supplement of paper PMC10849652.
